In patent publication US20200157542:
At least one result comes from cells or an extract, where the contact may be indirect.

By UniProt entry, the sequences of proteins in these tests, tags left out. Residues count along the entry.
UniProt P16070, 21-649: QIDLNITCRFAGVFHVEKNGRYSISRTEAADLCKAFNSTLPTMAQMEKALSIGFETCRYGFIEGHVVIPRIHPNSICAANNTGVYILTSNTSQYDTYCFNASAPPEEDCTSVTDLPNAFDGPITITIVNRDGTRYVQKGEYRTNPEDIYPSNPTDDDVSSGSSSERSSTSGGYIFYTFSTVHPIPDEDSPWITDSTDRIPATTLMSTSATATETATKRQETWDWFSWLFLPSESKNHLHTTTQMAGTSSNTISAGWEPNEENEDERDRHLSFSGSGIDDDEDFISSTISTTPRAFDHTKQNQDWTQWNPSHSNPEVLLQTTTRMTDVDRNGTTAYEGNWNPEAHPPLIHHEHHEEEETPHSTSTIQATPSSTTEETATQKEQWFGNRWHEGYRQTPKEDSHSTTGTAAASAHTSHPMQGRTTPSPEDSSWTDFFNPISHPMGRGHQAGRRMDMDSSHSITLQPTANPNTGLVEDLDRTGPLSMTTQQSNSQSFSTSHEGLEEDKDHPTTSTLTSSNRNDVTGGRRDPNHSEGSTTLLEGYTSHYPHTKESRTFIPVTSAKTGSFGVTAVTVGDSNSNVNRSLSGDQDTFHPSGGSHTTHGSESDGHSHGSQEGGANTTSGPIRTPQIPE
UniProt P16422, 24-265: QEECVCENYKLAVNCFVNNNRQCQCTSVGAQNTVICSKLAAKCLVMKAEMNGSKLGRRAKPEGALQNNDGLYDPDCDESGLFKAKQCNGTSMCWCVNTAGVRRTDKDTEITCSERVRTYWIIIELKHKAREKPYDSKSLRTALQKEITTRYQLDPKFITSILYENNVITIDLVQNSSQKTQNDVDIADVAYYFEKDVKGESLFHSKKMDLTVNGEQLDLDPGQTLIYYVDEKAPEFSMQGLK

Columns and labels:
[1] = target: CD44 (human) (UniProt P16070); assay: flow cytometry; conditions: RNA (U for T in printed DNA template), 2'-F pyrimidines throughout; 1 uM aptamer, TBS, 5% BSA, tRNA, sperm DNA, 37 C; binding reduced by CD44 siRNA and nearly lost on CD44+EpCAM double knockdown; protein on the cell surface; protein details: endogenous on OVCAR8 cells; label: 3'-Cy5 on EpCAM strand for flow cytometry
[2] = target: EpCAM (human) (UniProt P16422); assay: flow cytometry; conditions: RNA (U for T in printed DNA template), 2'-F pyrimidines throughout; 1 uM aptamer, TBS, 5% BSA, tRNA, sperm DNA, 37 C; binding reduced by EpCAM siRNA and nearly lost on CD44+EpCAM double knockdown; protein on the cell surface; protein details: endogenous on OVCAR8 cells; label: 3'-Cy5 on EpCAM strand for flow cytometry

Sequence: GGGAUGGAUCCAAGCUUACUGGCAUCUGGAUUUGCGCGUGCCAGAAUAAAGAGUAUAACGUGUGAAUGGGAAGCUUCGAUAGGAAUUCGGAAAAGCUUGUUCAGGAGAUGAAAUU / GCGACUGGUUACCCGGUCGUAAAAUUUCAUCUCCUGAACAAGCUU [CD44-EpCAM bispecific aptamer]
- binding result [1]: binds
- binding result [2]: binds
